Results as given in publication PMC12669767.
These are yes or no findings as the source states them, for the method shown. Binding seen in cells or lysates may run through a third protein. Some results given as binding are weak or reduced against the parent protein; the word gives no strength. Tags and fused reporters may be left off the sequences shown.

Biological target: T1, ALFA-tagged TXNIP re-expressed in RPE1 TXNIP^KO cells (human), Q9H3M7
T1 chain: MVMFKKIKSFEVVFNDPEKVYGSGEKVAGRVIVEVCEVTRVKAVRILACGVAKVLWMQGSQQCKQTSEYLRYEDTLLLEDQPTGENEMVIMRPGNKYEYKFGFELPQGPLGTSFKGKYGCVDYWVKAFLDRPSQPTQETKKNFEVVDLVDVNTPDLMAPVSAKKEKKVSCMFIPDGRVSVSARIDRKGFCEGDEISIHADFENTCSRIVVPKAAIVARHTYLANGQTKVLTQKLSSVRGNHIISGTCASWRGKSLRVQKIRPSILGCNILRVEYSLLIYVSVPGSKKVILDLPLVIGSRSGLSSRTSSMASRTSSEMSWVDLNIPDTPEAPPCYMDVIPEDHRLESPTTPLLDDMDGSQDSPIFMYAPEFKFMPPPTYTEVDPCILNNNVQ
Assay: co-IP; non-denaturing IP of ALFA-TXNIP from RPE1 TXNIP^KO cells on ALFA Selector ST beads, 3 h at 4 °C; 30 mM Tris pH 7.5, 120 mM NaCl, 20 mM NaF, 0.5% octyl-β-D-glucopyranoside; Western blot; WT cells without ALFA-TXNIP as control
Conditions: remark: other sources report otherwise

B1: NEDD4L, endogenous in RPE1, Q96PU5 1-975 (enzyme)
chain: MATGLGEPVYGLSEDEGESRILRVKVVSGIDLAKKDIFGASDPYVKLSLYVADENRELALVQTKTIKKTLNPKWNEEFYFRVNPSNHRLLFEVFDENRLTRDDFLGQVDVPLSHLPTEDPTMERPYTFKDFLLRPRSHKSRVKGFLRLKMAYMPKNGGQDEENSDQRDDMEHGWEVVDSNDSASQHQEELPPPPLPPGWEEKVDNLGRTYYVNHNNRTTQWHRPSLMDVSSESDNNIRQINQEAAHRRFRSRRHISEDLEPEPSEGGDVPEPWETISEEVNIAGDSLGLALPPPPASPGSRTSPQELSEELSRRLQITPDSNGEQFSSLIQREPSSRLRSCSVTDAVAEQGHLPPPSAPAGRARSSTVTGGEEPTPSVAYVHTTPGLPSGWEERKDAKGRTYYVNHNNRTTTWTRPIMQLAEDGASGSATNSNNHLIEPQIRRPRSLSSPTVTLSAPLEGAKDSPVRRAVKDTLSNPQSPQPSPYNSPKPQHKVTQSFLPPGWEMRIAPNGRPFFIDHNTKTTTWEDPRLKFPVHMRSKTSLNPNDLGPLPPGWEERIHLDGRTFYIDHNSKITQWEDPRLQNPAITGPAVPYSREFKQKYDYFRKKLKKPADIPNRFEMKLHRNNIFEESYRRIMSVKRPDVLKARLWIEFESEKGLDYGGVAREWFFLLSKEMFNPYYGLFEYSATDNYTLQINPNSGLCNEDHLSYFTFIGRVAGLAVFHGKLLDGFFIRPFYKMMLGKQITLNDMESVDSEYYNSLKWILENDPTELDLMFCIDEENFGQTYQVDLKPNGSEIMVTNENKREYIDLVIQWRFVNRVQKQMNAFLEGFTELLPIDLIKIFDENELELLMCGLGDVDVNDWRQHSIYKNGYCPNHPVIQWFWKAVLLMDAEKRIRLLQFVTGTSRVPMNGFAELYGSNGPQLFTIEQWGSPEKLPRAHTCFNRLDLPPYETFEDLREKLLMAVENAQGFEGVD
binding: binds
